# Data from US9090659B2, “RHAMM binding peptides” (London Health Sciences Centre Research Inc., priority 2010, dated 2015).
# Not every detail of the peptide structures is certain; ends, links or a residue may be inferred. Some compounds share one wording; it may come from a single statement. Peptide text beside a SMILES is read from it. * marks the point of attachment. FITC = O=C1OC2(c3ccc(O)cc3Oc3cc(O)ccc32)c2ccc(NC(=S)*)cc21; Ahx = NCCCCCC(=O)O
# How the values were obtained:
# [1] = molecular target: T1, RHAMM (Mus musculus, UniProt Q00547); experiment: SPR-based screening of tubulin-derived peptides against immobilized RHAMM (ProteON XPR36); format: binding; settings: peptides 10 μM injected over immobilized RHAMM
# T1 construct: Profinity eXact tag; made in house; host or cells: E. coli BL21 (D3), plasmid pPAL7-RHAMM
# T1 sequence (Q00547 706-766): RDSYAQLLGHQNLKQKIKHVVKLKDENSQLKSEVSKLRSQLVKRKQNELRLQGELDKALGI
# Protocol: ProteON XPR36 system was used for the selection and ranking of different tubulin derived peptides against RHAMM. For immobilization of RHAMM, the ProteON GLC sensor chip surfaces were activated by amine coupling using 100 mM EDAC and 24 mM sulfo-NHS. RHAMM (30 μg/mL in sodium bicarbonate buffer, pH 9.7) was injected at a flow a rate of 30 μl/min. A buffer sample was injected on a different sensor plate for use as a reference. Ethanolamine HCl (1M, pH 8.5) was then injected to deactivate any remaining surface groups. Peptides (10 μM in PBS-T, 2% DMSO) were injected to a RHAMM functionalized surface at 50 μL/min for 3 minutes followed by a 10 minute dissociation (i.e. injection of PBS-T buffer) period. The surfaces were regenerated using two injections of 30 μL of 1M NaCl prior to the injection of the next peptide. In all experiments, reference subtraction was performed using data obtained from reference plate (No RHAMM) and RHAMM functionalized plate.
# A SPR (surface plasmon resonance)-based screening method was utilized for rapid and accurate determination of potential peptide candidates that are able to recognize the HA-binding domain of RHAMM. Seventeen tubulin-derived peptides were screened, and the resulting sensograms were used to deduce peptides which show affinity to RHAMM. Prior to screening, the optimal condition for ligand immobilization, in this instance RHAMM, to the sensor plate was determined. The optimal pH for the immobilization buffer balances the electrostatic attraction of the protein to the sensor plate while minimizing protein deactivation. In this study the optimal pH for immobilization was determined to be the pH that yielded the highest ligand density. RHAMM was coupled to the sensor plate using sodium bicarbonate buffer of varying pH, at a flow rate of 30 μL/min and with fixed concentration of EDAC and sulfo-NHS. The RHAMM ligand density for each pH immobilization condition was determined from the average SPR response of six measurements and the maximum ligand immobilization occurred at pH 9.7 (FIG. 3 A). […]
# [2] = molecular target: T1, RHAMM; experiment: Competitive ELISA: unlabelled peptides compete with dye (Alexa Fluor 647)-conjugated HA for RHAMM; format: binding; settings: peptides 10 μg/ml; HA-Alexa Fluor 647 10 μg/ml
# [3] = test system: MDA-MB-231 cells; experiment: Cellular fluorescence assay (MDA-MB-231 uptake studies) with antibody blocking; format: cell-based, human; settings: MDA-MB-231 cells blocked with anti-RHAMM mAb; peptide 50 μg/ml, 30 minutes
# [4] = test system: human epithelial ovarian cancer (EOC) cells; experiment: Proliferation assay (alamarBlue) in patient-derived epithelial ovarian cancer cells; format: cell-based; settings: 1 uM and 10 uM, added once on day 1, followed 6 days
Structure (SMILES),affinity to RHAMM in SPR screening [1],displacement of dye-labelled HA from RHAMM by unlabelled peptide [2],reduction in cellular fluorescence [3],proliferation of EOC cells [4]
C[C@H](NC(=O)[C@H](CCC(=O)O)NC(=O)[C@H](CCC(=O)O)NC(=O)[C@H](CCC(=O)O)NC(=O)[C@H](C)NC(=O)[C@H](CCC(=O)O)NC(=O)[C@H](CCC(=O)O)NC(=O)CNC(=O)[C@H](Cc1ccccc1)NC(=O)[C@H](CC(=O)O)NC(=O)[C@H](CCC(=O)O)NC(=O)[C@@H](N)CCC(=O)O)C(N)=O [SEQ ID NO: 9] (H-EEDFGEEAEEEA-NH2),enhanced affinity to RHAMM,especially able to compete for the binding with HA consistently,–,–
CSCC[C@H](NC(=O)[C@H](CC(N)=O)NC(=O)[C@H](CO)NC(=O)[C@H](CCC(=O)O)NC(=O)[C@H](C)NC(=O)[C@H](CCC(=O)O)NC(=O)[C@@H](NC(=O)[C@H](Cc1ccccc1)NC(=O)CCCCCNC(=S)Nc1ccc2c(c1)C(=O)OC21c2ccc(O)cc2Oc2cc(O)ccc21)[C@@H](C)O)C(=O)N[C@@H](CC(N)=O)C(=O)N[C@@H](CC(=O)O)C(=O)N[C@@H](CC(C)C)C(=O)N[C@H](C(N)=O)C(C)C [SEQ ID NO: 35] ({FITC-Ahx}-FTEAESNMNDLV-NH2),–,–,about 65%,–
CC(C)[C@H](N)C(=O)N[C@@H](CCC(=O)O)C(=O)NCC(=O)N[C@@H](CCC(=O)O)C(=O)NCC(=O)N[C@@H](CCC(=O)O)C(=O)N[C@@H](CCC(=O)O)C(=O)N[C@@H](CCC(=O)O)C(=O)NCC(=O)N[C@@H](CCC(=O)O)C(=O)N[C@@H](CCC(=O)O)C(=O)N[C@@H](Cc1ccc(O)cc1)C(N)=O [SEQ ID NO: 1] (H-VEGEGEEEGEEY-NH2),enhanced affinity to RHAMM,–,–,inhibition of proliferation in 3 of 4 patient OC cell samples
CSCC[C@H](NC(=O)[C@H](CC(N)=O)NC(=O)[C@H](CO)NC(=O)[C@H](CCC(=O)O)NC(=O)[C@H](C)NC(=O)[C@H](CCC(=O)O)NC(=O)[C@@H](NC(=O)[C@@H](N)Cc1ccccc1)[C@@H](C)O)C(=O)N[C@@H](CC(N)=O)C(=O)N[C@@H](CC(=O)O)C(=O)N[C@@H](CC(C)C)C(=O)N[C@H](C(N)=O)C(C)C [SEQ ID NO: 14] (H-FTEAESNMNDLV-NH2),enhanced affinity to RHAMM,especially able to compete for the binding with HA consistently,–,–
